Numbering of substitutions follows the chain as printed. Results are given in words; binding and its absence hold for the method and conditions named. For part of these data: Binding calls can cover weak binding; strength is not graded here. Tags and fused reporters may be left off the sequences shown.

For test [1], the target named is FHA domain of Chk2^Cds1 H81A, two-hybrid fusion (fission yeast). Briefly: two-hybrid; Matchmaker Gold system, pGADT7 in Y187 crossed with pGBKT7 in Y2HGold; diploids plated on SD-Trp-Leu and SD-Trp-Leu-His, 30°C, 2-3 d.
The target in test [2] is FHA domain of Chk2^Cds1, two-hybrid fusion (fission yeast). Described as above.

B1: Sid4, two-hybrid fusion tested with the Chk2^Cds1 FHA domain (protein, UniProt O60187 1-660)
chain: MDEAFGDSLSTDYRWLGHSHFDSHPSAGDSIYFDSLDEDADPSRTARIDRIAELLDGLNDEQISELVNGVNSTTIKENTKKEISNPNDSTRLPLEQIPGSNNLFLDPRHQLGDNSQNAQRHHEPSFNSEKASYTSTPYKNVAPKVIDSPSARHMHSNSPSFPPSQSHTSSYDQSPKGQLRDNISVPNQQDGLDPEVFNQQSKETKKSLQVPPSRNVPPPVTRPNQYNPEPNFSLSSGYPQQHFSQPELQNRNVHLETVPESYPVPPSGYPLTSSTCVSSISQPIQSTDCQKAQENLSNNKQMSSNDQDIDPFKQAITDLPPSFVNIVLEMNATIQSLSNQCQQRDKQIENITKQLLMNQQDYCPTTMSTTVSTPLCPPKRFPKSTKDFKEQKPDTKQVRSATISNDFNLKGNGRYNEKSQIAVPSEIRVQLSTLDAILLQFEHLRKELTQARKEIQILRHTSQNGDQESNESSKNAITTKTTDKGNNKENTMLNDGSTAPAKNDIRNVINTNNLDAKLSDESELMIEKNKSYSTPASSTIPTFHTSQPLTSLNMPDSRFNLAKEKQLYYRLGLQHIDQQCSVETANMLKTVLVQLNIPFAIFPSTIGQVRRQLQQGRRLYQWARNIHYLIYEENMRDGLVSKQCLADMLKKIRELKKRSL
As for B1, the binding entry in test [1] is “no binding”; in test [2] it was “binds”.

B2: Sid4.T275AS278A, two-hybrid fusion (protein, UniProt O60187 1-660)
chain: B1 chain with T275A, S278A
Take B2: the binding result in test [2] is “no binding”.

For the origin of these results see PMC5584178.
